PubChem BioAssay AID743454 – Peter MacCallum Cancer Centre – 2014
Screen: 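Search for knock-downs that restore vorinostat killing in resistant colon cancer cells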 (primary screen). System: human HCT116-VR colon cancer cells, selected for vorinostat resistance. Knock-down reagent: siRNA pool against human genes, 40 nM siRNA pool. Timing: vorinostat for 24 h, read-out about 72 h after transfection. Treatment: vorinostat at 2.5 µM final. Detection: 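Cell viability by CellTiter-Fluor and caspase 3/7 activity by luminescence, each scaled to mock wells per plate, duplicates averaged, then robust z-scored over all plates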. Direction: viability robust z-score: higher = more viable cells than screen typical; caspase robust z-score: higher = more caspase 3/7 activity than screen typical. Rule for the call: 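a knock-down is a hit when classed RV1 or RV2 for lowered viability, or CA1 or CA2 for caspase activation; those lethal without drug were dropped; hits were retested singly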.
In all, the deposit lists about 18,000 reagents; shown is a random part of them. 450 of them (2.5%) count as active. 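Single biological run; no consistent viability z cut-off exists, so the class columns, not z-scores, define the calls.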 Reagent sequences are not shown.

Gene,viability hit class,caspase hit class,viability robust z-score,caspase robust z-score,Call
LBH (LBH regulator of Wnt signaling pathway),no change,no change,1.13,-0.4,inactive
TPPP (tubulin polymerization promoting protein),no change,no change,-0.97,2.42,inactive
RPL13A (ribosomal protein L13a),no change,no change,-4.13,-0.64,inactive
FFAR4 (free fatty acid receptor 4),no change,no change,0.64,-0.66,inactive
DRAP1 (DR1 associated protein 1),no change,no change,0.68,-0.58,inactive
UBE2G1 (ubiquitin conjugating enzyme E2 G1),no change,no change,-0.38,-0.07,inactive
"DEPDC5 (DEP domain containing 5, GATOR1 subcomplex subunit)",no change,no change,-0.2,-0.08,inactive
TMEM61 (transmembrane protein 61),no change,no change,-2.11,4.15,inactive
CYP7A1 (cytochrome P450 family 7 subfamily A member 1),no change,CA2 (caspase activation),-1.1,5.43,active
YTHDC2 (YTH N6-methyladenosine RNA binding protein C2),no change,no change,0.29,2.18,inactive
TAF10 (TATA-box binding protein associated factor 10),no change,no change,0.26,-0.28,inactive
SLC25A1,no change,no change,0.97,2.77,inactive
UACA,no change,no change,1.2,-0.68,inactive
CARD19 (caspase recruitment domain family member 19),no change,no change,-0.23,1.48,inactive
CSDC2 (cold shock domain containing C2),no change,CA2 (caspase activation),-0.46,5.25,active
PPP1CA (protein phosphatase 1 catalytic subunit alpha),no change,no change,-0.14,-0.06,inactive
"LARP1 (La ribonucleoprotein 1, translational regulator)",no change,no change,-1.43,-0.47,inactive
CENPA (centromere protein A),no change,no change,0.85,-0.55,inactive
MXD1 (MAX dimerization protein 1),no change,CA2 (caspase activation),-2.08,5.81,active
"SPNS1 (SPNS lysolipid transporter 1, lysophospholipid)",no change,no change,-0.01,4.13,inactive
TTC5 (tetratricopeptide repeat domain 5),no change,no change,0.74,-0.44,inactive
SYT1 (synaptotagmin 1),no change,no change,-0.92,0.52,inactive
RALY (RALY heterogeneous nuclear ribonucleoprotein),no change,no change,1.58,0.68,inactive
CFAP20 (cilia and flagella associated protein 20),no change,no change,-0.46,2.23,inactive
ITIH2 (inter-alpha-trypsin inhibitor heavy chain 2),no change,no change,0.16,-1.14,inactive
MTA1 (metastasis associated 1),no change,no change,-0.38,-0.56,inactive
"BSCL2 (BSCL2 lipid droplet biogenesis associated, seipin)",no change,no change,0.44,1.75,inactive
ZDHHC17 (zDHHC palmitoyltransferase 17),no change,no change,-0.43,0.48,inactive
SLC6A8,no change,no change,-0.52,0.86,inactive
HSD11B2 (hydroxysteroid 11-beta dehydrogenase 2),no change,no change,-1.9,-0.6,inactive
ZNF41 (zinc finger protein 41),no change,no change,-0.4,-0.34,inactive
CYP4F22 (cytochrome P450 family 4 subfamily F member 22),no change,no change,0.03,-0.3,inactive
BGN (biglycan),no change,no change,-0.36,1.97,inactive
OR13F1 (olfactory receptor family 13 subfamily F member 1),no change,no change,0.05,0.24,inactive
GKAP1 (G kinase anchoring protein 1),no change,no change,0.22,-0.55,inactive
TRAPPC5 (trafficking protein particle complex subunit 5),no change,no change,-0.81,-0.3,inactive
VCY1B (variable charge Y-linked 1B),no change,no change,-0.32,0.25,inactive
RASSF1 (Ras association domain family member 1),no change,no change,-0.24,2.03,inactive
THEM5 (thioesterase superfamily member 5),no change,no change,0.06,0.94,inactive

Just “viability hit class” (5 entries from above):
MTA1 (metastasis associated 1) = no change
BSCL2 (BSCL2 lipid droplet biogenesis associated, seipin) = no change
ZDHHC17 (zDHHC palmitoyltransferase 17) = no change
SLC6A8 = no change
HSD11B2 (hydroxysteroid 11-beta dehydrogenase 2) = no change
